Data from the supplement of paper PMC10077471.
The full ranking holds about 1,900 compounds; the median of “excess over highest single agent (ExcessHSA) synergy score, 6x6 matrix” is about -83, and the lowest 2% start at about -370. The list shows a part of the results.

What follows are compounds tested on NCI-H446 (assay: excess over highest single agent (ExcessHSA) synergy score, 6x6 matrix; higher = less synergy (more negative = stronger synergy)). Conditions: 72 h; CellTiter-Glo viability.

SMILES | excess over highest single agent
N=C(NCCCCCCNC(=N)NC(=N)Nc1ccc(Cl)cc1)NC(=N)Nc1ccc(Cl)cc1 + Cc1sc2c(c1C)C(c1ccc(Cl)cc1)=N[C@@H](CC(=O)OC(C)(C)C)c1nnc(C)n1-2 [NCGC00250412-19] | -235
COc1c2occc2cc2ccc(=O)oc12 + Cc1sc2c(c1C)C(c1ccc(Cl)cc1)=N[C@@H](CC(=O)OC(C)(C)C)c1nnc(C)n1-2 [NCGC00250412-19] | -204
COc1ccc2c(OCc3nnc4ccc(-c5ccccc5)nn34)ccnc2c1 + Cc1sc2c(c1C)C(c1ccc(Cl)cc1)=N[C@@H](CC(=O)OC(C)(C)C)c1nnc(C)n1-2 [NCGC00250412-19] | 11.1
CCOC(=O)[C@@H](N)Cc1ccc(-c2cc(O[C@H](c3ccc(Cl)cc3-n3ccc(C)n3)C(F)(F)F)nc(N)n2)cc1 + Cc1sc2c(c1C)C(c1ccc(Cl)cc1)=N[C@@H](CC(=O)OC(C)(C)C)c1nnc(C)n1-2 [NCGC00250412-19] | -149
O=S(=O)(F)Cc1ccccc1 + Cc1sc2c(c1C)C(c1ccc(Cl)cc1)=N[C@@H](CC(=O)OC(C)(C)C)c1nnc(C)n1-2 [NCGC00250412-19] | -94.8
CC(C)(O)/C=C/C(=O)[C@](C)(O)[C@H]1[C@H](O)C[C@@]2(C)[C@@H]3CC=C4[C@@H](C=C(O)C(=O)C4(C)C)[C@]3(C)C(=O)C[C@]12C + Cc1sc2c(c1C)C(c1ccc(Cl)cc1)=N[C@@H](CC(=O)OC(C)(C)C)c1nnc(C)n1-2 [NCGC00250412-19] | -136
Cc1nnc(C(=O)NC(C)(C)c2nc(C(=O)NCc3ccc(F)cc3)c(O)c(=O)n2C)o1 + Cc1sc2c(c1C)C(c1ccc(Cl)cc1)=N[C@@H](CC(=O)OC(C)(C)C)c1nnc(C)n1-2 [NCGC00250412-19] | -100
CC(C)c1nn(-c2c(Cl)cccc2Cl)c2nc(Cc3ccc(OCCO)cc3)[nH]c(=O)c12 + Cc1sc2c(c1C)C(c1ccc(Cl)cc1)=N[C@@H](CC(=O)OC(C)(C)C)c1nnc(C)n1-2 [NCGC00250412-19] | -167
O=C(NC[C@H]1CN(c2ccc(N3CCOCC3=O)cc2)C(=O)O1)c1ccc(Cl)s1 + Cc1sc2c(c1C)C(c1ccc(Cl)cc1)=N[C@@H](CC(=O)OC(C)(C)C)c1nnc(C)n1-2 [NCGC00250412-19] | -16.6
CC[C@H](/C=C/[C@@H](C)[C@H]1CC[C@H]2[C@@H]3CC=C4C[C@@H](O)CC[C@]4(C)[C@H]3CC[C@]12C)C(C)C + Cc1sc2c(c1C)C(c1ccc(Cl)cc1)=N[C@@H](CC(=O)OC(C)(C)C)c1nnc(C)n1-2 [NCGC00250412-19] | -106
O=C(O)c1cn(-c2ccc(F)cc2)c2cc(N3CCNCC3)c(F)cc2c1=O + Cc1sc2c(c1C)C(c1ccc(Cl)cc1)=N[C@@H](CC(=O)OC(C)(C)C)c1nnc(C)n1-2 [NCGC00250412-19] | -102
Oc1ccc(C2CCN(c3ccnc4ccccc34)CC2)cc1O + Cc1sc2c(c1C)C(c1ccc(Cl)cc1)=N[C@@H](CC(=O)OC(C)(C)C)c1nnc(C)n1-2 [NCGC00250412-19] | -257
COC(=O)[C@H](c1ccccc1Cl)N1CCc2sccc2C1 + Cc1sc2c(c1C)C(c1ccc(Cl)cc1)=N[C@@H](CC(=O)OC(C)(C)C)c1nnc(C)n1-2 [NCGC00250412-19] | -20.3
CC(C)(C)COc1ccc(-n2cc(C(=O)O)cn2)cc1C#N + Cc1sc2c(c1C)C(c1ccc(Cl)cc1)=N[C@@H](CC(=O)OC(C)(C)C)c1nnc(C)n1-2 [NCGC00250412-19] | -14.1
COCCCC/C(=N\OCCN)c1ccc(C(F)(F)F)cc1 + Cc1sc2c(c1C)C(c1ccc(Cl)cc1)=N[C@@H](CC(=O)OC(C)(C)C)c1nnc(C)n1-2 [NCGC00250412-19] | -161
NC(=O)N1CCC(CC(=O)N2CCC([C@H]3c4ncc(Br)cc4CCc4cc(Cl)cc(Br)c43)CC2)CC1 + Cc1sc2c(c1C)C(c1ccc(Cl)cc1)=N[C@@H](CC(=O)OC(C)(C)C)c1nnc(C)n1-2 [NCGC00250412-19] | -328
O=C(Nc1cc(C(F)(F)F)cc(C(F)(F)F)c1)c1cc(Cl)ccc1O + Cc1sc2c(c1C)C(c1ccc(Cl)cc1)=N[C@@H](CC(=O)OC(C)(C)C)c1nnc(C)n1-2 [NCGC00250412-19] | -78.6
COc1ccc(-c2coc3cc(O)ccc3c2=O)cc1 + Cc1sc2c(c1C)C(c1ccc(Cl)cc1)=N[C@@H](CC(=O)OC(C)(C)C)c1nnc(C)n1-2 [NCGC00250412-19] | -134
CNc1nc(-c2ccc3c(N)n[nH]c3c2)cc(N2C[C@@H](C(=O)NC3CCCCC3)CC[C@H]2C)n1 + Cc1sc2c(c1C)C(c1ccc(Cl)cc1)=N[C@@H](CC(=O)OC(C)(C)C)c1nnc(C)n1-2 [NCGC00250412-19] | -113

SMILES | excess over highest single agent
O=C1C(c2c(O)[nH]c3ccccc23)=Nc2ccccc21 + Cc1sc2c(c1C)C(c1ccc(Cl)cc1)=N[C@@H](CC(=O)OC(C)(C)C)c1nnc(C)n1-2 [NCGC00250412-19] | 13.8
CS(=O)(=O)c1ccc(C(=O)Nc2ccc(Cl)c(-c3ccccn3)c2)c(Cl)c1 + Cc1sc2c(c1C)C(c1ccc(Cl)cc1)=N[C@@H](CC(=O)OC(C)(C)C)c1nnc(C)n1-2 [NCGC00250412-19] | -168
CC(C)C[C@H](NC(=O)[C@H](Cc1ccccc1)NC(=O)c1cnccn1)B(O)O + Cc1sc2c(c1C)C(c1ccc(Cl)cc1)=N[C@@H](CC(=O)OC(C)(C)C)c1nnc(C)n1-2 [NCGC00250412-19] | -138
Clc1ccccc1C(c1ccccc1)(c1ccccc1)n1cccn1 + Cc1sc2c(c1C)C(c1ccc(Cl)cc1)=N[C@@H](CC(=O)OC(C)(C)C)c1nnc(C)n1-2 [NCGC00250412-19] | 11.7
CC1(C)CCC(c2ccc(Cl)cc2)=C(CN2CCN(c3ccc(C(=O)NS(=O)(=O)c4ccc(N[C@H](CCN5CCOCC5)CSc5ccccc5)c(S(=O)(=O)C(F)(F)F)c4)cc3)CC2)C1 + Cc1sc2c(c1C)C(c1ccc(Cl)cc1)=N[C@@H](CC(=O)OC(C)(C)C)c1nnc(C)n1-2 [NCGC00250412-19] | -251
Nc1nc(F)nc2c1ncn2[C@@H]1O[C@H](COP(=O)(O)O)[C@@H](O)[C@@H]1O + Cc1sc2c(c1C)C(c1ccc(Cl)cc1)=N[C@@H](CC(=O)OC(C)(C)C)c1nnc(C)n1-2 [NCGC00250412-19] | -21.9
O=C(NOCC1CC1)c1ccc(F)c(F)c1Nc1ccc(I)cc1Cl + Cc1sc2c(c1C)C(c1ccc(Cl)cc1)=N[C@@H](CC(=O)OC(C)(C)C)c1nnc(C)n1-2 [NCGC00250412-19] | -117
CCOC(=O)N1CCC(=C2c3ccc(Cl)cc3CCc3cccnc32)CC1 + Cc1sc2c(c1C)C(c1ccc(Cl)cc1)=N[C@@H](CC(=O)OC(C)(C)C)c1nnc(C)n1-2 [NCGC00250412-19] | -241
O=C(Nc1ccc(F)c(C(F)(F)F)c1)Nc1nnc(-c2ccncc2)s1 + Cc1sc2c(c1C)C(c1ccc(Cl)cc1)=N[C@@H](CC(=O)OC(C)(C)C)c1nnc(C)n1-2 [NCGC00250412-19] | 396
CC[C@H]1OC(=O)[C@H](C)[C@@H](O[C@H]2C[C@@](C)(OC)[C@@H](O)[C@H](C)O2)[C@H](C)[C@@H](O[C@@H]2O[C@H](C)C[C@H](N(C)C)[C@H]2O)[C@](C)(O)C[C@@H](C)C(=O)[C@H](C)[C@@H](O)[C@]1(C)O + Cc1sc2c(c1C)C(c1ccc(Cl)cc1)=N[C@@H](CC(=O)OC(C)(C)C)c1nnc(C)n1-2 [NCGC00250412-19] | 118
CC1=C(/C=C/C(C)=C/C=C/C(C)=C/C=C/C=C(C)/C=C/C=C(C)/C=C/C2=C(C)CCCC2(C)C)C(C)(C)CCC1 + Cc1sc2c(c1C)C(c1ccc(Cl)cc1)=N[C@@H](CC(=O)OC(C)(C)C)c1nnc(C)n1-2 [NCGC00250412-19] | 219
CO[C@H]1[C@H](O)[C@@H](O)[C@H](n2c3c(Cl)cccc3c3c4c(c5c6cccc(Cl)c6[nH]c5c32)C(=O)NC4=O)O[C@@H]1CO + Cc1sc2c(c1C)C(c1ccc(Cl)cc1)=N[C@@H](CC(=O)OC(C)(C)C)c1nnc(C)n1-2 [NCGC00250412-19] | -234
CC(C)(C)[C@]1(O)CC2OC(=O)CC23C(=O)OC2OC(=O)[C@H](O)C231 (some centres not stated) + Cc1sc2c(c1C)C(c1ccc(Cl)cc1)=N[C@@H](CC(=O)OC(C)(C)C)c1nnc(C)n1-2 [NCGC00250412-19] | 27.7
CCOC(=O)/C=C/[C@H](C[C@@H]1CCNC1=O)NC(=O)[C@@H](CC(=O)[C@@H](NC(=O)c1cc(C)on1)C(C)C)Cc1ccc(F)cc1 + Cc1sc2c(c1C)C(c1ccc(Cl)cc1)=N[C@@H](CC(=O)OC(C)(C)C)c1nnc(C)n1-2 [NCGC00250412-19] | -127
OCCN1CCN(CCCN2c3ccccc3Sc3ccc(C(F)(F)F)cc32)CC1 + Cc1sc2c(c1C)C(c1ccc(Cl)cc1)=N[C@@H](CC(=O)OC(C)(C)C)c1nnc(C)n1-2 [NCGC00250412-19] | -307
CC(C)Nc1cc(C(F)(F)F)cc2nc(NC(=O)c3cccnc3)nn12 + Cc1sc2c(c1C)C(c1ccc(Cl)cc1)=N[C@@H](CC(=O)OC(C)(C)C)c1nnc(C)n1-2 [NCGC00250412-19] | 144
Cc1cc(SCc2sc(-c3ccc(C(F)(F)F)c(F)c3)nc2C)ccc1OCC(=O)O + Cc1sc2c(c1C)C(c1ccc(Cl)cc1)=N[C@@H](CC(=O)OC(C)(C)C)c1nnc(C)n1-2 [NCGC00250412-19] | 44
O=C(c1cc(Cc2n[nH]c(=O)c3ccccc23)ccc1F)N1CCN(C(=O)C2CC2)CC1 + Cc1sc2c(c1C)C(c1ccc(Cl)cc1)=N[C@@H](CC(=O)OC(C)(C)C)c1nnc(C)n1-2 [NCGC00250412-19] | -192

Rewritten as a markdown table: part of the list above

| SMILES | excess over highest single agent |
| --- | --- |
| CC(C)(C)COc1ccc(-n2cc(C(=O)O)cn2)cc1C#N + Cc1sc2c(c1C)C(c1ccc(Cl)cc1)=N[C@@H](CC(=O)OC(C)(C)C)c1nnc(C)n1-2 [NCGC00250412-19] | -14.1 |
| COCCCC/C(=N\OCCN)c1ccc(C(F)(F)F)cc1 + Cc1sc2c(c1C)C(c1ccc(Cl)cc1)=N[C@@H](CC(=O)OC(C)(C)C)c1nnc(C)n1-2 [NCGC00250412-19] | -161 |
| NC(=O)N1CCC(CC(=O)N2CCC([C@H]3c4ncc(Br)cc4CCc4cc(Cl)cc(Br)c43)CC2)CC1 + Cc1sc2c(c1C)C(c1ccc(Cl)cc1)=N[C@@H](CC(=O)OC(C)(C)C)c1nnc(C)n1-2 [NCGC00250412-19] | -328 |
| O=C(Nc1cc(C(F)(F)F)cc(C(F)(F)F)c1)c1cc(Cl)ccc1O + Cc1sc2c(c1C)C(c1ccc(Cl)cc1)=N[C@@H](CC(=O)OC(C)(C)C)c1nnc(C)n1-2 [NCGC00250412-19] | -78.6 |
| COc1ccc(-c2coc3cc(O)ccc3c2=O)cc1 + Cc1sc2c(c1C)C(c1ccc(Cl)cc1)=N[C@@H](CC(=O)OC(C)(C)C)c1nnc(C)n1-2 [NCGC00250412-19] | -134 |
| CNc1nc(-c2ccc3c(N)n[nH]c3c2)cc(N2C[C@@H](C(=O)NC3CCCCC3)CC[C@H]2C)n1 + Cc1sc2c(c1C)C(c1ccc(Cl)cc1)=N[C@@H](CC(=O)OC(C)(C)C)c1nnc(C)n1-2 [NCGC00250412-19] | -113 |
| O=C1C(c2c(O)[nH]c3ccccc23)=Nc2ccccc21 + Cc1sc2c(c1C)C(c1ccc(Cl)cc1)=N[C@@H](CC(=O)OC(C)(C)C)c1nnc(C)n1-2 [NCGC00250412-19] | 13.8 |
